{
  "source": "patent US20180265594A1",
  "molecular_target": "T1, human VpreB1 (human) (UniProt P12018)",
  "T1 sequence": "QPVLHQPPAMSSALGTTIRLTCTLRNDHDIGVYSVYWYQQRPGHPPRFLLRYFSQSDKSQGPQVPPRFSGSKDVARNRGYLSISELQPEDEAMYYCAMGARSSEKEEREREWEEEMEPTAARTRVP",
  "experiment": "ELISA of phage Fab clones against human VpreB1",
  "note": "No constants are given. Whether binding was seen depends on the method and setting. Some entries that bind do so weakly or less than the wild type.",
  "data": [
    {"binder": "2462VpreBlam5D05 (Fab, V domains shown) VH: QVQLVQSGAEVKKPGSSVKVSCKASGGTFSNYAISWVRQAPGQGLEWMGWISPFSGGTNYAQKFQGRVTITADKSTSTAYMELSSLRSEDTAVYYCARGQWWYGDAFDYWGQGTLVTVSS VL: QSALTQPASVSGSPGQSITISCTGTSSDVGGYNYVSWYQQHPGKAPKLIIYDVTKRPSGVSNRFSGSKSGNTASLTISGLQAEDEADYYCCSYTGTSNFVFGGGTKLTVL", "values": [
      {"measurement": "binding", "result": "binds"}
    ]},
    {"binder": "2462VpreBlam5E08 (Fab, V domains shown) VH: EVQLLESGGGLVQPGGSLRLSCAASGFTFSSYGMNWVRQAPGKGLEWVATINYSGTSKYYADSVKGRFTISRDNSKNTLYLQMNSLRAEDTAVYYCARDRYKSYTYALDYWGQGTLVTVSS VL: SSELTQDPAVSVALGQTVRITCQGDSLRKKYVYWYQQKPGQAPVLVIYKDNNRPSGIPDRFSGSSSGNTASLTITGAQAEDEADYYCNSWDSSSAHYVFGGGTKLTVL", "values": [
      {"measurement": "binding", "result": "binds"}
    ]},
    {"binder": "2462VpreBlam5C05 (Fab, V domains shown) VH: EVQLVESGGGLVKPGGSLRLSCAASGFTFSDYGMSWVRQAPGKGLEWVSGISWNGGTTNYADSVKGRFTISRDNAKNSLYLQMNSLRAEDTAVYYCARSGGAFYLSGLDYWGQGTLVTVSS VL: QSALTQPASVSGSPGQSITISCTGTSSDVGSYNYVSWYQQHPGKAPKLMIYEVTNRPSGVSNRFSGSKSGNTASLTISGLQAEDEADYYCSSYASSSNLVFGGGTKLTVL", "values": [
      {"measurement": "binding", "result": "binds"}
    ]},
    {"binder": "2463VpreBlam5C04 (Fab, V domains shown) VH: QVQLVQSGAEVKKPGASVKVSCKASGYTFSSYGMSWVRQAPGQGLEWMGWINANSGGTSYAQKFQGRVTMTRDTSISTAYMELSRLRSDDTAVYYCARDDGGAYVYWGQGTLVTVSS VL: QSALTQPASVSGSPGQSITISCTGTSSDVGGYNYVSWYQQHPGKAPKLIIYDVTNRPSGVSNRFSGSKSGNTASLTISGLQAEDEADYYCSSYTGSSSYVFGGGTKLTVL", "values": [
      {"measurement": "binding", "result": "binds"}
    ]},
    {"binder": "2463VpreBlam5B05 (Fab, V domains shown) VH: QVQLVQSGAEVKKPGSSVKVSCKASGGTFTAYAINWVRQAPGQGLEWMGGINVGFGGANYAQKFQGRVTITADKSTSTAYMELSSLRSEDTAVYYCARDDYWTSVYWGQGTLVTVSS VL: DIQMTQSPSSLSASVGDRVTITCRASQGISNYLAWFQQKPGKAPKSLIYAASSLQSGVPSRFSGSGSGTDFTLTISSLQPEDFATYYCQQYNSYPLTFGGGTKVEIK", "values": [
      {"measurement": "binding", "result": "binds"}
    ]},
    {"binder": "2463VpreBlam5D07 (Fab, V domains shown) VH: QVQLVQSGAEVKKPGASVKVSCKASGYTFSGYGMHWVRQAPGQGLEWMGWINPISGTATYAQKFQGRVTMTRDTSISTAYMELSRLRSDDTAVYYCAKDLIGWISHSYNGDYWGQGTLVTVSS VL: DIQMTQSPSSLSASVGDRVTITCRASQGISNYLAWFQQKPGKAPKSLIYAASTLESGVPSRFSGSGSGTDFTLTISSLQPEDFATYYCQQYNSYPLTFGGGTKVEIK", "values": [
      {"measurement": "binding", "result": "binds"}
    ]},
    {"binder": "2460VpreBlam5B04 (Fab, V domains shown) VH: EVQLVESGGGLVKPGGSLRLSCAASGFTFSNFEMNWVRQAPGKGLEWVSGISSNGRYINYADSVKGRFTISRDNAKNSLYLQMNSLRAEDTAVYYCARVVDFDQDYNGFDYWGQGTLVTVSS VL: DIQLTQSPSFLSASVGDRVTITCRASQGISTDLNWYQQKPGKAPKLLIYAASNLESGVPSRFSGSGSGTEFTLTISSLQPEDFATYYCQQSYNWPYTFGGGTKVEIK", "values": [
      {"measurement": "binding", "result": "binds"}
    ]}
  ]
}
